Source: the supplement of paper PMC10849652
This is one part of the list.

By UniProt entry, the sequences of proteins in these tests, tags left out. Where a name states a change or a piece, a line headed by the entry shows the natural chain unless it says otherwise.
UniProt P0DMW3: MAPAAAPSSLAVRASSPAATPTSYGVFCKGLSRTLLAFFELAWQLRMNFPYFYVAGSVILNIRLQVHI
UniProt Q9NZC9: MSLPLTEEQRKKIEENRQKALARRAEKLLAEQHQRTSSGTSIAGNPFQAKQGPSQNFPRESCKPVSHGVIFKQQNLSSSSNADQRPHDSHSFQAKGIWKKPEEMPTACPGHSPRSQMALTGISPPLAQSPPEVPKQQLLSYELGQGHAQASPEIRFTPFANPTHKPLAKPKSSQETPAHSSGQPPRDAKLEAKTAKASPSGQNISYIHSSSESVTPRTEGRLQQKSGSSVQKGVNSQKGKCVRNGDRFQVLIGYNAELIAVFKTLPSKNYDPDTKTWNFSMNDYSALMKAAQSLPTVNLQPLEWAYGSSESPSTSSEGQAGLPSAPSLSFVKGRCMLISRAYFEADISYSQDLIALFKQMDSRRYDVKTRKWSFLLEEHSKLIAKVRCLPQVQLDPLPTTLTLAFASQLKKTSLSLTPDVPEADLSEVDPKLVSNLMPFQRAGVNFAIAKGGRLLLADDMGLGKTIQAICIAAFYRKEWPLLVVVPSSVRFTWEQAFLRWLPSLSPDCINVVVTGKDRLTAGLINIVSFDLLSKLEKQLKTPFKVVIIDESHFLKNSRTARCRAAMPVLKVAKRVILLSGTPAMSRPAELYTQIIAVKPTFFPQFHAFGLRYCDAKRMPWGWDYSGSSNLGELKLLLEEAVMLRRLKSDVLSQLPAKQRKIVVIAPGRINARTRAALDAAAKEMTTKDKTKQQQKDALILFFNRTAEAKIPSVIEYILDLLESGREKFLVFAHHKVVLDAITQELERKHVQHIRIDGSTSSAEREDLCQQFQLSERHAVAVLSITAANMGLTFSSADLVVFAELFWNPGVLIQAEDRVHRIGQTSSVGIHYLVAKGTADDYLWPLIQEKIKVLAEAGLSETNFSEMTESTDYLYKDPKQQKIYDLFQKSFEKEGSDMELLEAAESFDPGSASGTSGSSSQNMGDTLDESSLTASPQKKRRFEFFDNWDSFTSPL
UniProt Q96E16: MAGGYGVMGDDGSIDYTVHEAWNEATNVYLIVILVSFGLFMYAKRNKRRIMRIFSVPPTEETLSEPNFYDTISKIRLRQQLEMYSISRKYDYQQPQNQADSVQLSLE
UniProt Q92925, whole entry, looked up: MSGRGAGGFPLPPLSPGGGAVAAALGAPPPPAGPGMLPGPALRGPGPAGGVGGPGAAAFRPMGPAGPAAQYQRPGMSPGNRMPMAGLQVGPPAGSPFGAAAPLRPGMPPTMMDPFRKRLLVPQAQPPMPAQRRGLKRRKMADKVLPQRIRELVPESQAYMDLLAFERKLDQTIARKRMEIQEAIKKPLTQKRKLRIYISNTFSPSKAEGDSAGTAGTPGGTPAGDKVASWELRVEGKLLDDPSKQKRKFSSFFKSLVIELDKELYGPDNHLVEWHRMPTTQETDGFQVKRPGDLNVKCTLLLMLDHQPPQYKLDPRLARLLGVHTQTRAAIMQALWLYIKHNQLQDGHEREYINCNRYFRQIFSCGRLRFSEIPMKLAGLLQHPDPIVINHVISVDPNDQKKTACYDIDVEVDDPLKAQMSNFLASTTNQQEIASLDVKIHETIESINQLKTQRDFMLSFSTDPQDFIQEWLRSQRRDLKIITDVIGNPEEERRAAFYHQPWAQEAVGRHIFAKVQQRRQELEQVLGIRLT
UniProt Q96GM5, whole entry, looked up: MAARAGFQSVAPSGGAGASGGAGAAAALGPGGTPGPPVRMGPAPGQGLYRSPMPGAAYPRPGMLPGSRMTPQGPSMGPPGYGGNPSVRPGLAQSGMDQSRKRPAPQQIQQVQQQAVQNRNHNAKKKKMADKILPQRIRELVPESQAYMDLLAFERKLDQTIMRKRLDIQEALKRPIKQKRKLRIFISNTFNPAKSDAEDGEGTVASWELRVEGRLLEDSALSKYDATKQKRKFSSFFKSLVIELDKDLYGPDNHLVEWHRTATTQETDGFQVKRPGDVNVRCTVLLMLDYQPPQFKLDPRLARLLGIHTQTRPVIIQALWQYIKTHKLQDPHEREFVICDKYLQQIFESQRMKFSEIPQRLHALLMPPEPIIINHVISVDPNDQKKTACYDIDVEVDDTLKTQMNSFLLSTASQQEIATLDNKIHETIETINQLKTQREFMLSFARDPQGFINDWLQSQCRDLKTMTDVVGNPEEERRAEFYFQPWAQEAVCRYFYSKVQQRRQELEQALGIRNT
UniProt Q53HV7: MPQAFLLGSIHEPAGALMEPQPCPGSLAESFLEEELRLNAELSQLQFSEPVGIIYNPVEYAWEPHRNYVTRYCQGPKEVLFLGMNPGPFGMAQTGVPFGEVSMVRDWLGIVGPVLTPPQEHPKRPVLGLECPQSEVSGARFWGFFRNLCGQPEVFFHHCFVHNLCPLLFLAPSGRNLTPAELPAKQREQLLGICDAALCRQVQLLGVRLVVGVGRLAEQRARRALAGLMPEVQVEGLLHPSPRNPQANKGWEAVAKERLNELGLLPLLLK
UniProt Q9BT81: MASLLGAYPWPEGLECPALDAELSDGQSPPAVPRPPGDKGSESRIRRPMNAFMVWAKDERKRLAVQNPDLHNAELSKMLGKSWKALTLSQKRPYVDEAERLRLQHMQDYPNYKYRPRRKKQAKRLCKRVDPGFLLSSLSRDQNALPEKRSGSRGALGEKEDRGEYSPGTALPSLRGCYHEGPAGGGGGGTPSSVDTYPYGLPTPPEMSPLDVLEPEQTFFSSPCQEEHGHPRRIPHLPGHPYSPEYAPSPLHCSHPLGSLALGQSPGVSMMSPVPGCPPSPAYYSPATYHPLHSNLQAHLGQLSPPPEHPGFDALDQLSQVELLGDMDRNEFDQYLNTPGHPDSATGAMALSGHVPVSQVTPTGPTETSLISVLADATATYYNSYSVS
UniProt Q92581: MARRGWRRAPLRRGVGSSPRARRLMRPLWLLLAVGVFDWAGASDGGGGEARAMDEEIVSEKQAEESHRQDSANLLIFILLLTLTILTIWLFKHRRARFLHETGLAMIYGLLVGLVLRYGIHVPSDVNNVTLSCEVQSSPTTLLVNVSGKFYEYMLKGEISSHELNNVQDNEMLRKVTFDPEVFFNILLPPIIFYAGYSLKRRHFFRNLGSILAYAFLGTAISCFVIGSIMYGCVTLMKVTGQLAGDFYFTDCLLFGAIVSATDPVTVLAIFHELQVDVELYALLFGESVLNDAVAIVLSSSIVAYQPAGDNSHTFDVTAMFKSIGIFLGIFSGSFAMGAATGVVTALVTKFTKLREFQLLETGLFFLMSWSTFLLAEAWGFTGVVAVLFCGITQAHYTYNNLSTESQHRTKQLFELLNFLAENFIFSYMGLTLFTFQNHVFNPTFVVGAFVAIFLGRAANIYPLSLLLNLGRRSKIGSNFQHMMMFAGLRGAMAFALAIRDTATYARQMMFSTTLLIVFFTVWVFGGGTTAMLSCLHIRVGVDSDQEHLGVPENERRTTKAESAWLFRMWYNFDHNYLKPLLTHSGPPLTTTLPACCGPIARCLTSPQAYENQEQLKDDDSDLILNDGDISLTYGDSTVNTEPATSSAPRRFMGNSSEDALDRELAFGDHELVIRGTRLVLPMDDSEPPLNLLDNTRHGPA
UniProt P58511: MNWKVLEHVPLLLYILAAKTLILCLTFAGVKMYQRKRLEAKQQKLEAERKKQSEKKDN
UniProt O75971: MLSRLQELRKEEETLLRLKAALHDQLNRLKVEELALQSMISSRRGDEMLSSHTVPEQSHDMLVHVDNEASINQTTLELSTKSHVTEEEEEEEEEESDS
UniProt Q5SQN1: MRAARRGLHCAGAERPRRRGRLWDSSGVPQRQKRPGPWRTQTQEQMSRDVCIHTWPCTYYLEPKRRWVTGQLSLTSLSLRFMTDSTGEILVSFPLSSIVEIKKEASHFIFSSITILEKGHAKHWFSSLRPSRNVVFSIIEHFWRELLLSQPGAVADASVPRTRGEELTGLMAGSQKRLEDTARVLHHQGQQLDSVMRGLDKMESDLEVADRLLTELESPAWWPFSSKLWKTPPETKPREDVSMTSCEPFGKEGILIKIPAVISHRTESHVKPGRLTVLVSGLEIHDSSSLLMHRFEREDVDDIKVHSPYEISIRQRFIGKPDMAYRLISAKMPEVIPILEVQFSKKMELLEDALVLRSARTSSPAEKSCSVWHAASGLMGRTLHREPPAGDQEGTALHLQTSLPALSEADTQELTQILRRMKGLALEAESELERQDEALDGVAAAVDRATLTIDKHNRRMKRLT
UniProt Q02446, whole entry, looked up: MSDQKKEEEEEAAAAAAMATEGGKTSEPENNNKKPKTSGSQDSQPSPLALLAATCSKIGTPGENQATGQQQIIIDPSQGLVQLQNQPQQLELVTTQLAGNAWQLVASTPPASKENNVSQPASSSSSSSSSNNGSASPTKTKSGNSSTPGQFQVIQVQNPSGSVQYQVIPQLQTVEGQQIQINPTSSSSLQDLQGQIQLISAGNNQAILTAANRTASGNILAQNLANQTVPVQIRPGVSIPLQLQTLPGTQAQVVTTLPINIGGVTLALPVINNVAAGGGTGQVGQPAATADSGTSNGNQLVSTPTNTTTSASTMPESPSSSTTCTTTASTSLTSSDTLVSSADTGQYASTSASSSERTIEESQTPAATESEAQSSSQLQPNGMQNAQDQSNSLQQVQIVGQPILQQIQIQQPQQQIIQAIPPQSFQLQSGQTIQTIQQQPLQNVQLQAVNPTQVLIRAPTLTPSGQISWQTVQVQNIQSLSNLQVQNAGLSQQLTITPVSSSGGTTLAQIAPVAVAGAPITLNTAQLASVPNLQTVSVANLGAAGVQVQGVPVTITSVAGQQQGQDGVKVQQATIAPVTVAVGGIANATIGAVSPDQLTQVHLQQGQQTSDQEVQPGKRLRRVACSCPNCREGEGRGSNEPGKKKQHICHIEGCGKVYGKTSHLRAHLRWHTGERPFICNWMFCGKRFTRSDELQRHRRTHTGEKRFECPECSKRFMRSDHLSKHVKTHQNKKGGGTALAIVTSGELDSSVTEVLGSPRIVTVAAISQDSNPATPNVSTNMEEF
UniProt P51531, whole entry, looked up: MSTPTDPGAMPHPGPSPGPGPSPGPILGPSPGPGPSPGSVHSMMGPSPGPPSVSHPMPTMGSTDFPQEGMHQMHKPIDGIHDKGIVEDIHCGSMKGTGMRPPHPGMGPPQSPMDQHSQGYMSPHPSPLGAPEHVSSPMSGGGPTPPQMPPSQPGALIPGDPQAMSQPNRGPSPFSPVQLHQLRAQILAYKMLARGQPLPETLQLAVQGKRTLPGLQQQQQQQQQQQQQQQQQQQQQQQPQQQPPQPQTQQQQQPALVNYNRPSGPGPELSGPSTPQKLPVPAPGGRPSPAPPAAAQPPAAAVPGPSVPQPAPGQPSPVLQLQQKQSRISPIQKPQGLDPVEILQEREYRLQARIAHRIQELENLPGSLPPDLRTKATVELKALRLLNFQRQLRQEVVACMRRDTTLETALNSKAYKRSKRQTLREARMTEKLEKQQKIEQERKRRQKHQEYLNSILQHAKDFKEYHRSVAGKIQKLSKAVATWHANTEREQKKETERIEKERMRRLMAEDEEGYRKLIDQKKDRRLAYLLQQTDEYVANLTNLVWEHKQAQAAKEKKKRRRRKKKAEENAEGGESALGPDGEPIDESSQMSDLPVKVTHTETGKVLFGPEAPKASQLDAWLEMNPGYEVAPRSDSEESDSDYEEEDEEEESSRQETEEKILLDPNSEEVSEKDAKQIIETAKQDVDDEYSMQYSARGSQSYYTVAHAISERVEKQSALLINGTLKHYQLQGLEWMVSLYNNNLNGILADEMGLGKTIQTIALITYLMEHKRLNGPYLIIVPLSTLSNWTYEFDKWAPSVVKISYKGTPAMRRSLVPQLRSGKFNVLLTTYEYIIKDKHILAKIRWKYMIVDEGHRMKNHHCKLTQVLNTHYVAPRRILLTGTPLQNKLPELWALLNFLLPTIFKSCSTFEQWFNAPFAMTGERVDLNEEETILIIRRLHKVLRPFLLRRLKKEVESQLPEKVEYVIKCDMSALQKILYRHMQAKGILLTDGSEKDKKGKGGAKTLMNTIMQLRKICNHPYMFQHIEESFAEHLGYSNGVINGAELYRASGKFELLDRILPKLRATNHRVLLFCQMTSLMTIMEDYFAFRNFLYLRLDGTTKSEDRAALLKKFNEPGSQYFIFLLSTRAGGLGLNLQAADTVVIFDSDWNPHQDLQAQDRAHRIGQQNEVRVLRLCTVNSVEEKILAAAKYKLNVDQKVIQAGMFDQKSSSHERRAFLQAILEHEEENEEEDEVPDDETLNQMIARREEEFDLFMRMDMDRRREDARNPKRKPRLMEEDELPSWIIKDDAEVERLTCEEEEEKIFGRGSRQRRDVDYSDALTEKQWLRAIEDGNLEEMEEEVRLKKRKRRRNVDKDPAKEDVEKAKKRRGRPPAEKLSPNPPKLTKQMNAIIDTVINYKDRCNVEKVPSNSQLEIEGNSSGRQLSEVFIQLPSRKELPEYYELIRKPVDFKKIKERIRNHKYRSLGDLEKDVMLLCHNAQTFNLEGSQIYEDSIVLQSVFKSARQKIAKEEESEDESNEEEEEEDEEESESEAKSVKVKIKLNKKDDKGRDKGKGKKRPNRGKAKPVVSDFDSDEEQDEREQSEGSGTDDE

Tests used:
Assay in all cases: log2 fold change, soluble protein after heating vs DMSO (PISA); higher = thermal stabilisation; K562 cells, 10 uM, 30 min; active = over 0.2 and 3.5 SD of the protein, either way, in both replicates (recomputed)
[1] = compound: CC1=C(C=C(C=C1)NC(=O)C2=CC(=CC=C2)N(C)C)NC(=O)C3=CC=C(C=C3)O
In short: (§1)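 Soluble protein was defined as the supernatant after 21,000xg for 90 min. It came from K562 cells at 2×10^6 cells/mL given 10 μM compound for 30 min, heated in aliquots for 3 min across 48°C-58°C, pooled, and extracted in PBS with 0.5% NP-40 at 4°C, and was quantified by TMTpro 16plex LC-MS/MS with equalised channel sums. Thermal stability against control samples, from duplicates, is reported as log2 fold change.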

[2] = compound: CC1=CC=C(C=C1)SC2=C3C=C(SC3=CN=C2)C(=O)N
In short: as §1

vemurafenib = compound: CCCS(=O)(=O)Nc1ccc(F)c(C(=O)c2c[nH]c3ncc(-c4ccc(Cl)cc4)cc23)c1F [vemurafenib]
In short: as §1

[3] = compound: CCCS(=O)(=O)Nc1ccc(F)c(C(=O)c2c[nH]c3ncc(Cl)cc23)c1F
In short: as §1

[4] = compound: CCCc1cc(C)[nH]c(=O)c1CNC(=O)c1cc(-c2ccnc(N3CCN(C)CC3)c2)cc2c1cnn2C(C)C
In short: as §1

volasertib = compound: CC[C@@H]1C(=O)N(C)c2cnc(Nc3ccc(C(=O)N[C@H]4CC[C@H](N5CCN(CC6CC6)CC5)CC4)cc3OC)nc2N1C(C)C [volasertib]
In short: as §1

[5] = compound: CN(C)CC(=O)Nc1ccc2[nH]c(=O)c3ccccc3c2c1
In short: as §1

[6] = compound: CC1=NC(=CC=C1)C2=C(N=C(N2)C(C)(C)C)C3=CC4=NC=CN=C4C=C3
In short: as §1

[7] = compound: CC[C@@H]1C(=O)N(C)c2cnc(Nc3ccc(C(=O)NC4CCN(C)CC4)cc3OC)nc2N1C1CCCC1
In short: as §1

[8] = compound: CCn1cc(-c2ccnc3[nH]c(-c4cccc(CN(C)C)c4)cc23)c(-c2ccc(NC(=O)N(C)C)cc2)n1
In short: as §1

[9] = compound: CN1CCC(CNc2ccc3ncc(-c4cccc(OC(F)(F)F)c4)n3n2)CC1
In short: as §1

givinostat = compound: CCN(CC)Cc1ccc2cc(COC(=O)Nc3ccc(C(=O)NO)cc3)ccc2c1 [givinostat]
In short: as §1

[10] = compound: CCn1c(C(=O)N(C2CC2)C2CC2)cc2c3c(ncn3C)c(Nc3cc(C)n(C)n3)nc21
In short: as §1

[11] = compound: CN1C2=C(C3=C1C(=O)N(N=C3)CC4=CC(=CC=C4)N)SC(=C2)S(=O)C
In short: as §1

barasertib = compound: CCN(CCCOc1ccc2c(Nc3cc(CC(=O)Nc4cccc(F)c4)[nH]n3)ncnc2c1)CCOP(=O)(O)O [barasertib]
In short: as §1

rosiglitazone = compound: CN(CCOC1=CC=C(C=C1)C[C@H]2C(=O)NC(=O)S2)C3=CC=CC=N3 (racemic) [rosiglitazone]
In short: as §1

[12] = compound: CC1=C(C=C(C=C1)NC(=O)C2=CC(=CC=C2)C(C)(C)C#N)NC3=CC4=C(C=C3)N=CN(C4=O)C
In short: as §1

[13] = compound: CC[C@H](C)N1C=C(C2=C(C=C(C=C21)C3=CN=C(C=C3)N4CCNCC4)C(=O)NCC5=C(C=C(NC5=O)C)C)C
In short: as §1

Nexturastat A = compound: CCCCN(Cc1ccc(C(=O)NO)cc1)C(=O)Nc1ccccc1 [Nexturastat A]
In short: as §1

epoxomicin = compound: CC[C@H](C)[C@@H](C(=O)N[C@@H]([C@@H](C)O)C(=O)N[C@@H](CC(C)C)C(=O)[C@]1(CO1)C)NC(=O)[C@H]([C@@H](C)CC)N(C)C(=O)C [epoxomicin]
In short: as §1

Measured: log2 fold change

SOX6 (UniProt P35712)
inactive: [1] 0.631 | [2] 0.043 | vemurafenib -0.123 | [3] -0.174 | [4] -0.069 | volasertib -0.246 | [5] -0.052

SNRPN isoform 2 (UniProt P63162)
inactive: [1] -0.024 | [2] -0.132 | [6] 0.146 | [3] -0.26 | [7] 0.042 | volasertib -0.566 | [8] 0.369 | [9] 0.233

SMIM10L1 (UniProt P0DMW3)
inactive: givinostat -0.102 | [10] -0.169

SMARCAL1 (UniProt Q9NZC9)
inactive: [1] -0.104 | vemurafenib -0.092 | [4] 0.02 | givinostat 0.125 | [10] -0.156 | [5] 0.31

SMIM19 (UniProt Q96E16)
inactive: [1] -0.112 | [2] 0.209 | vemurafenib -0.092 | [3] -0.023 | [7] -0.097 | volasertib -0.016 | [5] -0.182 | [11] -0.345

SMU1 isoform 2 (UniProt Q2TAY7)
inactive: [6] 0.119 | barasertib -0.08 | [7] 0.14 | rosiglitazone 0.145

SMARCD2 (UniProt Q92925)
inactive: [2] -0.071 | [6] -0.048 | [3] 0.215 | [4] 0.222 | givinostat 0.02 | [7] -0.314 | volasertib -0.252 | [10] 0.034 | [8] -0.046 | [9] -0.117

SMAD3 (UniProt P84022)
inactive: [1] 0.05 | [2] -0.053 | vemurafenib 0.037 | [3] -0.14 | volasertib -0.531 | [8] 0.105 | [5] -0.175 | [11] -0.034 | [9] -0.128

SMARCD1 (UniProt Q96GM5)
inactive: [4] -0.065 | givinostat 0.163 | [10] -0.024

SMUG1 (UniProt Q53HV7)
inactive: [12] -0.025 | [4] -0.044 | [7] -0.113 | [13] 0.147

SNX27 (UniProt Q96L92)
inactive: [1] 0 | [6] 0.034 | Nexturastat A 0.136 | vemurafenib 0.144 | givinostat 0.168 | [7] 0.067 | epoxomicin -0.066 | [10] -0.113 | [8] 0.107 | [5] -0.035 | [11] 0.226 | [9] -0.2

SLC8B1 (UniProt Q6J4K2)
inactive: [1] 0.038 | [2] -0.28 | [6] -0.022 | vemurafenib -0.075 | [3] -0.021 | givinostat 0.069 | barasertib -0.167 | volasertib 0.156 | [8] 0.091 | [5] -0.005 | [11] 0.086 | [9] -0.509

SOX7 isoform 2 (UniProt Q9BT81)
inactive: [1] 0.058 | [2] -0.08 | [6] -0.272 | Nexturastat A 0.159 | vemurafenib -0.153 | [3] -0.043 | [4] 0.083 | givinostat 0.196 | barasertib -0.088 | volasertib 0.257 | [13] -0.278 | epoxomicin -0.183 | [10] -0.033 | [8] 0.158 | [5] -0.19 | rosiglitazone -0.151 | [11] 0.312 | [9] 0.128

SLC9A6 isoform 3 (UniProt Q92581)
inactive: [2] -0.152 | [3] -0.152 | givinostat -0.021 | barasertib 0.109 | [7] -0.041 | volasertib -0.045 | [11] 0.008

SMIM11A (UniProt P58511)
inactive: [6] -0.008 | barasertib -0.227 | [13] -0.125 | rosiglitazone -0.093

SNAPC5 (UniProt O75971)
inactive: [2] -0.035 | [6] 0.04 | Nexturastat A 0.066 | vemurafenib 0.055 | [3] -0.042 | givinostat 0.038 | barasertib 0.079 | volasertib 0.083 | [13] -0.03 | epoxomicin 0.04 | [10] 0.162 | [8] -0.034 | [5] 0.043 | rosiglitazone -0.138 | [11] 0.015 | [9] 0.071

SMG6 (UniProt Q86US8)
inactive: [12] 0.207 | Nexturastat A 0.129 | barasertib -0.174 | [13] -0.258 | epoxomicin -0.142 | rosiglitazone 0.352 | [11] 0.173

SNAP47 (UniProt Q5SQN1)
inactive: Nexturastat A 0.047 | vemurafenib -0.112 | givinostat 0.177 | epoxomicin 0.16 | [10] -0.106 | [5] 0.041

SNRPD2 (UniProt K7EJB5)
inactive: [1] -0.023 | [2] -0.102 | [6] 0.004 | vemurafenib -0.163 | [3] -0.159 | [4] -0.138 | barasertib -0.016 | [7] 0.162 | volasertib 0.072 | [13] -0.136 | [8] 0.117 | [5] -0.105 | rosiglitazone 0.123 | [11] 0.041 | [9] 0.054

SP4 (UniProt Q02446)
inactive: [1] 0.18 | [6] -0.026 | [7] 0.111 | [13] -0.005 | [8] 0.162 | [9] 0.121

SNIP1 (UniProt Q8TAD8)
inactive: [8] 0.205 | [9] -0.036

SMPD4 isoform 2 (UniProt Q9NXE4)
inactive: [2] 0.162 | [6] -0.023 | vemurafenib -0.301 | [3] 0.099 | [4] -0.035 | barasertib 0.034 | volasertib -0.234 | [8] -0.236 | [5] -0.044 | [11] 0.056 | [9] -0.441

SMARCA2 (UniProt P51531)
inactive: [1] 0.053 | [4] -0.11 | givinostat 0.013 | barasertib -0.111 | [7] 0.162 | [13] -0.131 | [10] 0.01 | [8] 0.053 | rosiglitazone -0.041 | [9] 0.062
